PMC7940618 (Nature Communications, 2021)

Assay: general procedure: Fmoc solid-phase peptide synthesis; Wang resin (PHB on polystyrene) preloaded with the C-terminal amino acid; HCTU
Settings: conjugation step

| Substance | conjugation yield [%] |
| --- | --- |
| Azac-LFEEGLLT | 96 |
| TW-ELTLGEFL-FAM | 10 |
